Data taken from ChEMBL document CHEMBL3988442, “University of Dundee, Small-Polar-MMV Screening Library” (2021).

Amino acid sequences for entries named in this document (tags omitted).
UniProt E9BF75, entry or part of it: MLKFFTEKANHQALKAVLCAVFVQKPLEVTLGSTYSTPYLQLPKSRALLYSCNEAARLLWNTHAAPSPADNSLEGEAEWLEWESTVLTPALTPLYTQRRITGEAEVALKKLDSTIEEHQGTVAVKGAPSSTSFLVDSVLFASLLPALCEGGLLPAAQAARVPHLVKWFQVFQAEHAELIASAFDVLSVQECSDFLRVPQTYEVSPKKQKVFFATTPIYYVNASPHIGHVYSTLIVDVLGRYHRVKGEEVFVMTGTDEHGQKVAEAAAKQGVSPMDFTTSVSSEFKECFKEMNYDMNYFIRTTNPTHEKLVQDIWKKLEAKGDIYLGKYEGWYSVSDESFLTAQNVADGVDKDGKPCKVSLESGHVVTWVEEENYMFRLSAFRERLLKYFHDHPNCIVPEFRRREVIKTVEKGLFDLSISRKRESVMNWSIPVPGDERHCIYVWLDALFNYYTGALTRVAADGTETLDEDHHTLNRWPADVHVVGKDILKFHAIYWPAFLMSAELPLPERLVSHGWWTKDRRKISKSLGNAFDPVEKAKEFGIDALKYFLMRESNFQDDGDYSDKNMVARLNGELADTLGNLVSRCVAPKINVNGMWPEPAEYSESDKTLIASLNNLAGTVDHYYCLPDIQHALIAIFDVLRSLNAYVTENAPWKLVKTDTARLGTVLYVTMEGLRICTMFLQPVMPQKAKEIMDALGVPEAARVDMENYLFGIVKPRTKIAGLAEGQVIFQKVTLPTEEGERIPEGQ

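Methionyl-tRNA synthetase (putative), Leishmania donovani (UniProt E9BF75). Primary screen of methionyl-tRNA synthetase; the read-out is not stated. The test concentration is not given. The values are filed as inhibition. Size under these conditions: about 68,000 compounds, about 24 of them at 50% or above in at least one test.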

Results are percentages, as filed. The controls that fix the scale are not given in the record; negative values are as filed. The compounds are a random part of those screened.

* C[C@@H]1CN(S(=O)(=O)N2CCCC2)C[C@@]1(O)C1CC1 : 9.408%
* Cc1ccc(N2CCCN(C(=O)CC3CCCO3)CC2)nn1 (stereo not drawn) : 12.42%
* O=C(NCCCn1nc2ccccn2c1=O)Nc1ccccc1 : 3.988%
* COc1cc(CNC(=O)c2csc(Br)c2)ccn1 : 16.45%
* COCC1c2nnn(CC3CC3)c2CCN1C(=O)c1cc(C)on1 (stereo not drawn) : 1.031%
* COCc1nc(C(=O)N2CCCC(n3ccnc3)C2)cs1 (stereo not drawn) : 10.8%
* OC1CCN(c2ccccc2NCc2nc(-c3ccoc3)no2)CC1 : 10.14%
* CCc1cc(CNC(=O)N2CCC(Cc3cnn(C)c3)C2)on1 (stereo not drawn) : 15.26%
* CCOCCN1CCn2c(C)nnc2C1 : 2.778%
* O=C([C@H]1COC[C@H]2CN(CC3CCC3)C[C@H]21)N1CCOCC1 : 18.48%
* CC(=O)NCCC(=O)NCC1(c2c(F)cccc2F)CCCC1 : 8.333%
* Cc1nnnn1-c1cc(NCc2cccc(C#N)c2)ccc1F : 16.62%
* Cc1nnc(CN(C)CC(=O)N2CCCN(C3CCCC3)CC2)n1C : 9.97%
* COCc1cc(N2CCOCC2)n2nccc2n1 : 0.2545%
* O=C(CCn1ccc2ccc(Br)cc21)/N=c1\[nH]nc(C2CCCO2)s1 (stereo not drawn) : 9.162%
* Cn1cc(CN2CCc3nc4sccc4c(=O)n3CC2)cn1 : 14.15%
* OC1(CNCc2noc(Cc3ccccc3)n2)CCCNC1 (stereo not drawn) : 2.32%
* O=C(N1CCCO1)[C@@]12CCO[C@@H]1CCN(Cc1ccc(F)cc1)C2 : 9.041%
* CC[C@@H]1N(CC2CCOCC2)CCC[C@]12CCC(=O)N2 : 11.96%
* Cn1cc(CN2CCOC3(CCCN(c4cccc(F)c4)C3)C2)cn1 (stereo not drawn) : 15.93%
* Cc1ccccc1-n1cc(-c2ccnc(NC(CO)C(C)C)n2)cn1 (stereo not drawn) : 5.575%
* Cc1c(-c2ccccc2)ncn1CC(c1cccnc1)N1CCOCC1 (stereo not drawn) : 25.94%
* Cc1ccc2oc(C(=O)N3CCCC(c4noc(C)n4)C3)cc2n1 (stereo not drawn) : 11.04%
* Cc1ccc(CCC(=O)N2CCC(Nc3cccnn3)CC2)cc1 : 16.48%
* CCc1cn[nH]c1C1CCN(c2cc(C)c3ccc(OC)cc3n2)CC1 : 15.52%
* O=C(NCCC(=O)N1CCCc2ccccc21)c1c(F)cccc1F : 23.2%
* CCc1nc(CC(=O)N2CCn3c(nnc3C(F)(F)F)C2)cs1 : 8.163%
* COCCn1cc(C(=O)N2CCCC2c2ccc(F)cc2)ccc1=O (stereo not drawn) : 11.71%
* CS(=O)(=O)NC1CCN(C(=O)NCCNc2ccccn2)CC1 : 2.857%
* CCn1cc(C(=O)NCc2csc(C3CC3)n2)c(C)n1 : 14.42%
* CCCc1n[nH]c(C2CN(C(=O)Cn3ccccc3=O)CCO2)n1 (stereo not drawn) : 25.64%
* c1ccc(NCc2cnc3n2CCN(C2CCOC2)CC3)nc1 (stereo not drawn) : 4.667%
* CCOCC1CN(Cc2ccsc2)Cc2cnn(C)c21 (stereo not drawn) : 10.15%
* CCCN(CC)Cc1ccc(C(=O)NCC2COCCO2)c(=O)[nH]1 (stereo not drawn) : 11.29%
* CC1CN(CC(=O)NCc2ccccc2)CCN1Cc1nccn1C (stereo not drawn) : 21.9%
* Cc1nc(-c2nnc[nH]2)sc1C(=O)N1CCCC1CC(C)(C)C (stereo not drawn) : 1.083%
* CN(C)C(=O)N1Cc2nnn(C)c2C(COCC2CC2)C1 (stereo not drawn) : 12.5%
* CN(Cc1ccccc1)C1(C(=O)O)Cc2ccccc2C1 : 17.56%
* Cc1ccc(C(=O)NCc2ccnc(N(C)C)c2)c(C)c1 : 15.66%